Reference: the supplement of paper PMC7666118
Some of the results follow.

The chains behind the UniProt entries cited, without tags or fusion partners. Where a name states a change or a piece, a line headed by the entry shows the natural chain unless it says otherwise.
UniProt Q9H3H5: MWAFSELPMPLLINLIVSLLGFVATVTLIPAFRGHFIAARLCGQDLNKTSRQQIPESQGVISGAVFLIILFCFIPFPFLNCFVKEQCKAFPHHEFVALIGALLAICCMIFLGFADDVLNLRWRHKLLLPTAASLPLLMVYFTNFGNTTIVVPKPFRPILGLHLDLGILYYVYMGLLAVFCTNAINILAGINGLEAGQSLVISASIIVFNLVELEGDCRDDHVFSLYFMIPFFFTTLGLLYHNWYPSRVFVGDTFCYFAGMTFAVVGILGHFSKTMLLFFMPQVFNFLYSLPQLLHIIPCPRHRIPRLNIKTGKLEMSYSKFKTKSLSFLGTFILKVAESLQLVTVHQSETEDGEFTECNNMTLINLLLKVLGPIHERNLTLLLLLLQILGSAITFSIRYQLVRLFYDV
UniProt Q12882: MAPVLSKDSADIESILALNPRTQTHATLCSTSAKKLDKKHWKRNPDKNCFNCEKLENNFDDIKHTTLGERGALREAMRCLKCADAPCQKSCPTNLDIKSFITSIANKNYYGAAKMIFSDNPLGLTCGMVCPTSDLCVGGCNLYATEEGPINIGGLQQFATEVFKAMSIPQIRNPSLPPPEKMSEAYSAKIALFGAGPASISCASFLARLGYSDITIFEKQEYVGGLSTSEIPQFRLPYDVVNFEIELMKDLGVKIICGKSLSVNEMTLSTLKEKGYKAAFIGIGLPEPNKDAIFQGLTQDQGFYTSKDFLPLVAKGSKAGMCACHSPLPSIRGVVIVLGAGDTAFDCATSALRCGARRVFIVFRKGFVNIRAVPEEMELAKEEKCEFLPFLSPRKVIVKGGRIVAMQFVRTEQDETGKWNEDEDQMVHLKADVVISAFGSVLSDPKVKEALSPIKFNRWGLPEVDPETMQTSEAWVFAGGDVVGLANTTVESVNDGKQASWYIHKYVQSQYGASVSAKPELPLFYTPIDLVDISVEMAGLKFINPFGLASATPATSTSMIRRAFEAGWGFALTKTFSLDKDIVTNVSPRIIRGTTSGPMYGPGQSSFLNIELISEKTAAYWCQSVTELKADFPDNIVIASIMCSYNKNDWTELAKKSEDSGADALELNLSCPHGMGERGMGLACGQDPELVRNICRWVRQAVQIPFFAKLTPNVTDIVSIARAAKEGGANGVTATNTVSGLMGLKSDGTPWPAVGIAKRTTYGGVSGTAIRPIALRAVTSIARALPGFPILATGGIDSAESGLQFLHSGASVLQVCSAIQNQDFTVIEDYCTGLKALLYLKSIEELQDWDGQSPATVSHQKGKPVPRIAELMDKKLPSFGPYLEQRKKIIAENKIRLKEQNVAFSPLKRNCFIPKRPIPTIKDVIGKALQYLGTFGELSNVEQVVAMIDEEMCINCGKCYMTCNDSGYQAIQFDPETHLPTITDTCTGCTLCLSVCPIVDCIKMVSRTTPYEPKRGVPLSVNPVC
UniProt Q92889: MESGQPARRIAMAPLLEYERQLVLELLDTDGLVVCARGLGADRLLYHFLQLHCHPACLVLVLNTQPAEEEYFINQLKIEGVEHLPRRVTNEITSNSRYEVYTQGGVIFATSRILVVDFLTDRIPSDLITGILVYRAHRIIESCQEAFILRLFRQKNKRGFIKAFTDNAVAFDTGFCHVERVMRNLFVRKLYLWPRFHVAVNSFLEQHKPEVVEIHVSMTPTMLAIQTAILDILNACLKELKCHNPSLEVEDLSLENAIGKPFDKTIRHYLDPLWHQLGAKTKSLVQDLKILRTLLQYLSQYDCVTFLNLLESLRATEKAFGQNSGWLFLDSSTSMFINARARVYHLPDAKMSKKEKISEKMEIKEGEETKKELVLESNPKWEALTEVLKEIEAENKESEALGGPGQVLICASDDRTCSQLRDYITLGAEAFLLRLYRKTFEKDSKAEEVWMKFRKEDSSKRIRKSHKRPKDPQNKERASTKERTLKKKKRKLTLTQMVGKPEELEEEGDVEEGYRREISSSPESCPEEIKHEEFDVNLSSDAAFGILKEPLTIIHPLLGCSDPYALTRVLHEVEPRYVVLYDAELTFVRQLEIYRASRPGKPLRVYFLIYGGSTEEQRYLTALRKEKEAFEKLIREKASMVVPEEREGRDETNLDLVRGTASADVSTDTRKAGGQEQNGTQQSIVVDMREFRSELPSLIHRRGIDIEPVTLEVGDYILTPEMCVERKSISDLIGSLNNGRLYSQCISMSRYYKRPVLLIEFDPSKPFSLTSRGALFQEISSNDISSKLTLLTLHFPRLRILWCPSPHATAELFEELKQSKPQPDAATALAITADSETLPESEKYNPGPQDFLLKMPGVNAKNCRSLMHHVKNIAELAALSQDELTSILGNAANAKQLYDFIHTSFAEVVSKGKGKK
UniProt O15372, whole entry: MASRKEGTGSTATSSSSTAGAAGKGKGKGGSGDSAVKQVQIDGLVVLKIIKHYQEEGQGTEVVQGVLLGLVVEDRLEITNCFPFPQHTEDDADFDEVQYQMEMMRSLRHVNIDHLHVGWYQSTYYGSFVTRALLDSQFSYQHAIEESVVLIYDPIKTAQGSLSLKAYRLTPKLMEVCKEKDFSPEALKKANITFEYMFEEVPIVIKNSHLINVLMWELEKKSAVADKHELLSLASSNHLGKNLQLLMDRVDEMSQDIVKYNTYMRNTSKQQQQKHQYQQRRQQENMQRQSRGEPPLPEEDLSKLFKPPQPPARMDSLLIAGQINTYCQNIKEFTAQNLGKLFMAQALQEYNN
UniProt O95834: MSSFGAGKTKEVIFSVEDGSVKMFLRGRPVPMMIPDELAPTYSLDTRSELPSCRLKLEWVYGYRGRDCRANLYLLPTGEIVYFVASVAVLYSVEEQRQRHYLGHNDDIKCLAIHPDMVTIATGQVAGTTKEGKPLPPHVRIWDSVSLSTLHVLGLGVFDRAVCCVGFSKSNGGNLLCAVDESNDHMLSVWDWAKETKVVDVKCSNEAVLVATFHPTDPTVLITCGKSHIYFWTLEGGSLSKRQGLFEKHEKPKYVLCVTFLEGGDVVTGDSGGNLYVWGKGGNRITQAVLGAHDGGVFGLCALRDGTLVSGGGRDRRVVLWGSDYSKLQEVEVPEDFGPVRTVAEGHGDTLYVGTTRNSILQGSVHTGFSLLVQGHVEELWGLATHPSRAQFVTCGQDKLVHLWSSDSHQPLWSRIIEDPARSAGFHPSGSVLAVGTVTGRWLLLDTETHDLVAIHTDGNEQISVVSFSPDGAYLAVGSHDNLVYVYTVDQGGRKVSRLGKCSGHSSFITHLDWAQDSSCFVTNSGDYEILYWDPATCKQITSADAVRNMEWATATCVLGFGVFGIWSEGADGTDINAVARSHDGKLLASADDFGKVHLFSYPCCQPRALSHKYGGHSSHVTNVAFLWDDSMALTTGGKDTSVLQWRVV
UniProt Q8IZ81: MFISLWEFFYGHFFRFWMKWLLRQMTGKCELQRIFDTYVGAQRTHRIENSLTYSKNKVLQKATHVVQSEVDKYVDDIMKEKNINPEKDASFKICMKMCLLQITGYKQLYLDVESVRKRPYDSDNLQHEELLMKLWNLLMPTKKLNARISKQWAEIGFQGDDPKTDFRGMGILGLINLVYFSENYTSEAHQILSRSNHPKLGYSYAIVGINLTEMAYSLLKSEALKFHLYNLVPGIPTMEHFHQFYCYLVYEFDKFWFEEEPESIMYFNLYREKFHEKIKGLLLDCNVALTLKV
UniProt P50402: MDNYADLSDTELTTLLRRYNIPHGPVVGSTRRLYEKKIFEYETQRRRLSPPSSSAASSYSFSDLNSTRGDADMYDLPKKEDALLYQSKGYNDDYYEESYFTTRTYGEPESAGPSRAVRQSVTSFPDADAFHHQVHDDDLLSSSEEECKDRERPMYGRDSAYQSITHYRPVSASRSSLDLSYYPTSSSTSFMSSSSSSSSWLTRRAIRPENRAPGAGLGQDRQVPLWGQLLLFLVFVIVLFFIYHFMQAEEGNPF
UniProt Q2PZI1: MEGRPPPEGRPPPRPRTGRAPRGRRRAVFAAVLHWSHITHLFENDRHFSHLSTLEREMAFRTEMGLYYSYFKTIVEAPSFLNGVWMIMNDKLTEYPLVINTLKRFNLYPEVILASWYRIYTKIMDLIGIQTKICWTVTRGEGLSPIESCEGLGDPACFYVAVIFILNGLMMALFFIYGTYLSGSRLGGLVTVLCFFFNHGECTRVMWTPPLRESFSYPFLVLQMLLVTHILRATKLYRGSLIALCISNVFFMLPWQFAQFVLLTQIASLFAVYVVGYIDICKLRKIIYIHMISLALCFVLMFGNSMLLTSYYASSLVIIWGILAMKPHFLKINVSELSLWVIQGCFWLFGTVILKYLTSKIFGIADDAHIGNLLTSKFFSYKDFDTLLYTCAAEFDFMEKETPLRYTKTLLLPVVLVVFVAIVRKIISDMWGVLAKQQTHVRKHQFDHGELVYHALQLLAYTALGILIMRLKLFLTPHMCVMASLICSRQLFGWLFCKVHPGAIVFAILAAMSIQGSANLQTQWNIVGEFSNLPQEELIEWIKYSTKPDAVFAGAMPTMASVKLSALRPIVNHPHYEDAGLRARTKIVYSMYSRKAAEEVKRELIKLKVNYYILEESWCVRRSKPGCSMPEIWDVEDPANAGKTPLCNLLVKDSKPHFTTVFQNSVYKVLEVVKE
UniProt O14641: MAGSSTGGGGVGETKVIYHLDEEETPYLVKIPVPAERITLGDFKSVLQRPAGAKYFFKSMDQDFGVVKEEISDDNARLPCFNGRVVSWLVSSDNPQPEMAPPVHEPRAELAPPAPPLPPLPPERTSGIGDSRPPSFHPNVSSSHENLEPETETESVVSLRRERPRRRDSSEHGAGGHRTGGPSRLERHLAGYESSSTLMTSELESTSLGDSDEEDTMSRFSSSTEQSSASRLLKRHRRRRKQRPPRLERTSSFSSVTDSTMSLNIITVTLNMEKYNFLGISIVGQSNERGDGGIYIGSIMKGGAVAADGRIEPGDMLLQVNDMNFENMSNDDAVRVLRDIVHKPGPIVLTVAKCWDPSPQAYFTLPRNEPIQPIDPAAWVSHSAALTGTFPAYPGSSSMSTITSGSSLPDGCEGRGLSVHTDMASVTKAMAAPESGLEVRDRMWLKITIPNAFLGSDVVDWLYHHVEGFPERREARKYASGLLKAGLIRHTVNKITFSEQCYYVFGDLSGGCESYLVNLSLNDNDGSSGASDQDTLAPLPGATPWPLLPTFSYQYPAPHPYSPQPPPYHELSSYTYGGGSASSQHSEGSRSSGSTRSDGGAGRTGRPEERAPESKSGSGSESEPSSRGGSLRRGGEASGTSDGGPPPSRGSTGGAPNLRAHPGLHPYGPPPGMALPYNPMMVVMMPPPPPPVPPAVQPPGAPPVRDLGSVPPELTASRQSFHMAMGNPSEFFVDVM

Compound: COc1ccc(Cn2ccc3ccc(C(=O)NO)cc32)cc1
Test: dose-dependent thermal stabilisation call (2D-TPP, DLPTP, 10% FDR) (binary (1 = stabilised)); higher = stabilised by the compound
Conditions: system: HL-60 intact cells; concentration range 0.04-10 µM

Target	dose-dependent thermal stabilisation call
DPAGT1 (UniProt Q9H3H5)	inactive: 0
DPYD (UniProt Q12882)	inactive: 0
ERCC4 (UniProt Q92889)	inactive: 0
EIF3H (UniProt O15372)	inactive: 0
EML2 (UniProt O95834)	inactive: 0
ELMOD2 (UniProt Q8IZ81)	inactive: 0
EMD (UniProt P50402)	inactive: 0
DPY19L1 (UniProt Q2PZI1)	inactive: 0
DNPEP (UniProt Q9ULA0)	inactive: 0
DVL2 (UniProt O14641)	inactive: 0
DOCK11 (UniProt Q5JSL3)	inactive: 0
